PubChem BioAssay AID1224827 – NIAID | 2016
Assay: 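Identify regulators of the macrophage TNF-alpha response to bacterial LPS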 (follow-up of hits). Cells: RAW264.7 G9 mouse macrophage reporter clone. Reagents: single siRNA against mouse genes, 100 nM siRNA. Timing: siRNA for 2 days, then LPS about 16 h. Treatment: bacterial lipopolysaccharide (LPS), 10 ng/ml, cells fixed after overnight (about 16 h) stimulation. Read-out: 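Imaged nuclear TNF reporter intensity, background removed, scaled per plate and to non-targeting control wells, as z-scores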. Reading the numbers: TNF reporter z-score, mean and TNF reporter z-score: higher = stronger Tnf promoter reporter signal; gene median z, three same-vendor siRNAs: higher = stronger Tnf reporter signal for the gene. Hit rule: 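An siRNA is called active when its mean z-score over replicates is at least +2 or at most -2; control wells get no call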.
This is one part, drawn at random, of about 3,800 deposited reagents. Over the whole deposit, about 2,200 (57%) got an active call. 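Active means a strong reporter change in either direction; calls are per siRNA, not per gene; qiagen siRNAs gave weaker effects.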 A number with no mark means an inactive call. The numbers tell different reagents against one gene apart.

| gene | reagent no. | TNF reporter z-score, mean | gene median z, three same-vendor siRNAs | TNF reporter z-score, repeat 1 | TNF reporter z-score, repeat 2 |
| --- | --- | --- | --- | --- | --- |
| Nle1 | 1 | 5.87 (active) | -2.75 | 1.72 | 10 |
| Nle1 | 2 | -2.75 (active) | -2.75 | -2.68 | -2.82 |
| Nle1 | 3 | -5.32 (active) | -2.75 | -5.22 | -5.42 |
| Nle1 | 4 | 0.255 | -1.25 | 1.51 | -1 |
| Nle1 | 5 | -0.799 | -1.25 | -0.109 | -1.49 |
| Nle1 | 6 | -3.76 (active) | -1.25 | -4.24 | -3.29 |
| Magi1 | 1 | -2.52 (active) | -4.04 | -2.23 | -2.8 |
| Magi1 | 2 | -4.04 (active) | -4.04 | -4.2 | -3.88 |
| Magi1 | 3 | -4.68 (active) | -4.04 | -4.74 | -4.62 |
| Magi1 | 4 | 1.81 | 0.23 | 3.06 | 0.559 |
| Magi1 | 5 | 0.375 | 0.23 | 0.849 | -0.0994 |
| Magi1 | 6 | -0.879 | 0.23 | -0.212 | -1.55 |
| Zscan21 | 1 | -2.17 (active) | -3.76 | -2.18 | -2.16 |
| Zscan21 | 2 | -4.09 (active) | -3.76 | -3.54 | -4.65 |
| Zscan21 | 3 | -4.09 (active) | -3.76 | -4.2 | -3.98 |
| Zscan21 | 4 | 1.52 | -0.54 | 3.31 | -0.262 |
| Zscan21 | 5 | 0.4 | -0.54 | 1.85 | -1.05 |
| Zscan21 | 6 | -1.48 | -0.54 | -0.817 | -2.15 |
| Fau | 1 | -3.06 (active) | -3.55 | -2.81 | -3.32 |
| Fau | 2 | -3.55 (active) | -3.55 | -3.48 | -3.62 |
| Fau | 3 | -3.91 (active) | -3.55 | -3.74 | -4.07 |
| Fau | 4 | -1.13 | -1.76 | -1.48 | -0.787 |
| Fau | 5 | -1.57 | -1.76 | -1.1 | -2.04 |
| Fau | 6 | -3.22 (active) | -1.76 | -4.14 | -2.3 |
| Cacna1d | 1 | -0.849 | -3.72 | -1.54 | -0.157 |
| Cacna1d | 2 | -3.72 (active) | -3.72 | -4.15 | -3.29 |
| Cacna1d | 3 | -4.81 (active) | -3.72 | -4.35 | -5.26 |
| Cacna1d | 4 | 1.1 | -1.73 | 2.27 | -0.0664 |
| Cacna1d | 5 | -1.93 | -1.73 | -2.15 | -1.72 |
| Cacna1d | 6 | -1.96 | -1.73 | -2.17 | -1.74 |
| Or2z9 | 1 | -0.357 | -0.774 | 0.54 | -1.25 |
| Or2z9 | 2 | -0.774 | -0.774 | -0.547 | -1 |
| Or2z9 | 3 | -0.97 | -0.774 | -0.342 | -1.6 |
| Actl7a | 1 | -3.28 (active) | -4.26 | -4.05 | -2.52 |
| Actl7a | 2 | -4.6 (active) | -4.26 | -5.1 | -4.1 |
| Actl7a | 3 | -4.95 (active) | -4.26 | -4.43 | -5.46 |
| Actl7a | 4 | 2.68 (active) | 1.33 | 4.71 | 0.653 |
| Actl7a | 5 | 0.652 | 1.33 | 2 | -0.699 |
| Actl7a | 6 | 1.48 | 1.33 | 4.82 | -1.86 |
| Cabp7 | 1 | 6.12 (active) | -3.94 | 3.04 | 9.21 |
| Cabp7 | 2 | -4.04 (active) | -3.94 | -3.92 | -4.15 |
| Cabp7 | 3 | -4.48 (active) | -3.94 | -5 | -3.95 |
| Cabp7 | 4 | 1.37 | -1.14 | 3.36 | -0.618 |
| Cabp7 | 5 | 1.01 | -1.14 | 3.69 | -1.66 |
| Cabp7 | 6 | -3.49 (active) | -1.14 | -3.27 | -3.71 |
| Pdcl3 | 1 | 1.85 | -2.29 | 0.263 | 3.43 |
| Pdcl3 | 2 | -2.63 (active) | -2.29 | -1.43 | -3.82 |
| Pdcl3 | 3 | -3.24 (active) | -2.29 | -3.32 | -3.16 |
| Pdcl3 | 4 | 2.49 (active) | -0.0496 | 4.43 | 0.556 |
| Pdcl3 | 5 | -0.0731 | -0.0496 | 0.734 | -0.88 |
| Pdcl3 | 6 | -0.789 | -0.0496 | -0.655 | -0.923 |
| Hmox2 | 1 | 0.124 | -0.497 | -0.512 | 0.761 |
| Hmox2 | 2 | -0.216 | -0.497 | -0.481 | 0.0476 |
| Hmox2 | 3 | -1.63 | -0.497 | -0.84 | -2.42 |
| Hmox2 | 4 | 3.82 (active) | -0.616 | 6.22 | 1.43 |
| Hmox2 | 5 | -0.616 | -0.616 | -0.573 | -0.66 |
| Hmox2 | 6 | -1.98 | -0.616 | -2.36 | -1.59 |

Targets above whose gene name begins with A or a (6):
| gene | reagent no. | TNF reporter z-score, mean | gene median z, three same-vendor siRNAs | TNF reporter z-score, repeat 1 | TNF reporter z-score, repeat 2 |
| --- | --- | --- | --- | --- | --- |
| Actl7a | 1 | -3.28 (active) | -4.26 | -4.05 | -2.52 |
| Actl7a | 2 | -4.6 (active) | -4.26 | -5.1 | -4.1 |
| Actl7a | 3 | -4.95 (active) | -4.26 | -4.43 | -5.46 |
| Actl7a | 4 | 2.68 (active) | 1.33 | 4.71 | 0.653 |
| Actl7a | 5 | 0.652 | 1.33 | 2 | -0.699 |
| Actl7a | 6 | 1.48 | 1.33 | 4.82 | -1.86 |
